Results: patent US20230285364A1, “USE OF A DHODH INHIBITOR COMPOUND IN COMBINATION CANCER THERAPY” (Servier Pharmaceuticals LLC, priority 2020, published 2023)
For at least one compound, name, drawing or mass did not settle the structure.

Experiments:
Format in all cases: cell-based
Settings in all cases: growth media used for the experiments (5 µM uridine)
NOMO-1 = assay: CTG growth assay, combination matrix (Example 1), NOMO-1
SUDHL2 = assay: CTG growth assay, combination matrix (Example 1), SUDHL2
SUDHL4 = assay: CTG growth assay, combination matrix (Example 1), SUDHL4
THP-1 = assay: CTG growth assay, combination matrix (Example 1), THP-1

Cc1ccccc1-c1ccc(-c2cc(C(=O)O)c3c(c2)nnn3C)cc1 [Compound 1, 1-methyl-5-(2′-methyl-[1,1′-biphenyl]-yl)-1H-benzo[d][1,2,3]triazole-7-carboxylic acid]
single agent sensitivity to Compound 1 (NOMO-1): did not have sufficient single agent sensitivity
single agent sensitivity to Compound 1 (SUDHL2): did not have sufficient single agent sensitivity
single agent sensitivity to Compound 1 (SUDHL4): did not have sufficient single agent sensitivity
single agent sensitivity to Compound 1 (THP-1): did not have sufficient single agent sensitivity
